Results deposited as PubChem BioAssay AID1159584 (Peter MacCallum Cancer Centre, 2016).
In all, the deposit lists about 18,000 reagents; this is a part drawn at random. The numbers tell different reagents against one gene apart. Not all columns of the deposit are shown. Reagent sequences are not shown. Not stated in the record: the amount of reagent, the time to read-out.

- Assay: 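Knock-downs that harm CDH1-null cells more than parental MCF10A cells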 (primary screen)
- Cells: human MCF10A breast epithelial cells, parental and CDH1-null
- Reagent: siRNA against human genes
- Read-out: 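Cell viability by CellTiter-Glo ATP luminescence, each line scaled to the mean of mock wells across plates, then CDH1-null over parental ratio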
- Direction: CDH1-null / parental viability ratio: higher = CDH1-null cells survive relatively better than parental

For MYO18A (myosin XVIIIA) #1, the values are CDH1-null / parental viability ratio 1.4.
MYO18A (myosin XVIIIA) #2 showed CDH1-null / parental viability ratio 0.77.
Knock-down of CC2D1A (coiled-coil and C2 domain containing 1A) resulted in: CDH1-null / parental viability ratio 0.96.
After knock-down of IL20RB (interleukin 20 receptor subunit beta) the results were CDH1-null / parental viability ratio 0.76.
After knock-down of STARD3NL (STARD3 N-terminal like), the screen gave CDH1-null / parental viability ratio 0.96.
Knock-down of TNFSF13 (TNF superfamily member 13) resulted in: CDH1-null / parental viability ratio 0.83.
PATE1 (prostate and testis expressed 1) showed CDH1-null / parental viability ratio 1.24.
Depletion of HPN (hepsin) resulted in: CDH1-null / parental viability ratio 1.03.
BNIPL (BCL2 interacting protein like) showed CDH1-null / parental viability ratio 0.9.
With knock-down of H2AC11 (H2A clustered histone 11), the record shows CDH1-null / parental viability ratio 0.92.
DACT2 (dishevelled binding antagonist of beta catenin 2) gave CDH1-null / parental viability ratio 0.61.
Against NXPH3 (neurexophilin 3), the entry reads CDH1-null / parental viability ratio 1.63.
With knock-down of ASB7 (ankyrin repeat and SOCS box containing 7), the screen gave CDH1-null / parental viability ratio 1.03.
With knock-down of HPS3 (HPS3 biogenesis of lysosomal organelles complex 2 subunit 1), the record shows CDH1-null / parental viability ratio 1.07.
After knock-down of H2BC15 (H2B clustered histone 15), the screen gave CDH1-null / parental viability ratio 0.91.
Silencing of RETN (resistin) resulted in: CDH1-null / parental viability ratio 0.77.
After knock-down of PLPP6 (phospholipid phosphatase 6) the results were CDH1-null / parental viability ratio 1.35.
After knock-down of HIGD1B (HIG1 hypoxia inducible domain family member 1B) the results were CDH1-null / parental viability ratio 1.13.
CD9 (CD9 molecule) gave CDH1-null / parental viability ratio 1.3.
For HINT1 (histidine triad nucleotide binding protein 1), the entry reads CDH1-null / parental viability ratio 1.1.
For VPS33A (VPS33A core subunit of CORVET and HOPS complexes) the deposit lists CDH1-null / parental viability ratio 1.1.

2 successive reagents from above, for reference:
CD9 (CD9 molecule) → CDH1-null / parental viability ratio: 1.3
HINT1 (histidine triad nucleotide binding protein 1) → CDH1-null / parental viability ratio: 1.1

Further reagents follow:
After knock-down of CST6 (cystatin E/M), the record shows CDH1-null / parental viability ratio 0.8.
CTAG2 (cancer/testis antigen 2) gave CDH1-null / parental viability ratio 0.83.
Depletion of MTERF2 (mitochondrial transcription termination factor 2) gave: CDH1-null / parental viability ratio 0.93.
After knock-down of RRAS2 (RAS related 2) the results were CDH1-null / parental viability ratio 1.29.
DHX58 (DExH-box helicase 58) showed CDH1-null / parental viability ratio 0.86.
Against MYH4 (myosin heavy chain 4), the values are CDH1-null / parental viability ratio 1.14.
Knock-down of ENTREP1 (endosomal transmembrane epsin interactor 1) came out at: CDH1-null / parental viability ratio 1.56.
Silencing of HFM1 (helicase for meiosis 1) resulted in: CDH1-null / parental viability ratio 1.
Silencing of AP5S1 (adaptor related protein complex 5 subunit sigma 1) resulted in: CDH1-null / parental viability ratio 1.48.
TSPAN32 (tetraspanin 32) scored CDH1-null / parental viability ratio 1.
Against GNL2 (G protein nucleolar 2), the values are CDH1-null / parental viability ratio 0.84.
After knock-down of SLC25A39, the record shows CDH1-null / parental viability ratio 0.82.
For SLC44A2, the values are CDH1-null / parental viability ratio 0.86.
After knock-down of LRIT3 (leucine rich repeat, Ig-like and transmembrane domains 3), the screen gave CDH1-null / parental viability ratio 1.43.
